Source: PMC7819943, “Rice protein-binding microarrays: a tool to detect cis-acting elements near promoter regions in rice”
The other results are listed elsewhere or left out.

biological target: T1, OsSMF1 (Oryza sativa, UniProt Q6ZLB0 1-436); test: protein-binding microarray (RPBM); PBS, 2% BSA, 51.3 ng/ul salmon testes DNA, 50 uM zinc acetate, 200 nM TF, 25 C, 1 h; high values mean tight binding; conditions: protein: recombinant; tags: N-terminal polyhistidine and DsRed monomer fusion (pET32a); chain copies: 2; label: CyDye5-dUTP incorporated in the synthesized complementary strand; 3' TTTTT single-stranded linker to array surface; dsDNA, one strand shown
T1 sequence: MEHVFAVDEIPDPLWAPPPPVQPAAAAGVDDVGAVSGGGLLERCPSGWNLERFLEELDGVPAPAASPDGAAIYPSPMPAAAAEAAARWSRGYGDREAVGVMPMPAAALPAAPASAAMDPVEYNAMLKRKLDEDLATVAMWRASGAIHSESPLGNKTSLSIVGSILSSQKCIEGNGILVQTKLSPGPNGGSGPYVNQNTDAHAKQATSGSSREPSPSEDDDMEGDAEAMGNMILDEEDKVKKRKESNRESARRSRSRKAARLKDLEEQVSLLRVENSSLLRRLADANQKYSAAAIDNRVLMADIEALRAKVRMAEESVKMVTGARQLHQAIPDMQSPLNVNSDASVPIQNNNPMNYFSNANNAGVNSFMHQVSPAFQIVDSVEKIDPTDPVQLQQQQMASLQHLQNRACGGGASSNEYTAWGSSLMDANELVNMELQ
Outline: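 Binding signal here means per-feature fluorescence intensity in arbitrary units. The values were read on an Axon 4000B scanner after a custom Agilent array, double-stranded by primer extension with Cy5-dUTP, was incubated with 200 nM protein at 25 °C for 1 h in PBS with 2% BSA, salmon testes DNA and 50 µM zinc acetate, then washed. The proteins were transcription factors with an N-terminal polyhistidine tag and DsRed, expressed in E. coli BL21-CodonPlus and purified on Ni–NTA.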

Sequence	binding signal
CGAACAAGCCATAAATCAAATATCGGAGAGCGAAAGAGTACGGAGTCACCTAGTGCAG	22600 fluorescence intensity (a.u.)
TTGGTAAGGATGAGCTGGAAGAGTCATCAAAGCATGGCACCGGAGTCACCTAGTGCAG	3290 fluorescence intensity (a.u.)
GTCTACGGAGTACGGACATGACACGAGACAATATTACCCCCGGAGTCACCTAGTGCAG	3350 fluorescence intensity (a.u.)
CGCGATAGCGATGTGACTCATTTACCGCTGATCTGATCTGCGGAGTCACCTAGTGCAG	7490 fluorescence intensity (a.u.)
ACGGTTTTATCTTGTCACTCGGGTGTTGCTAGGGCACGATCGGAGTCACCTAGTGCAG	3430 fluorescence intensity (a.u.)
CTCGCCGGCGTCTTCACCAGGCGCTCCGCCTCCACGTCGGCGGAGTCACCTAGTGCAG	8520 fluorescence intensity (a.u.)
GCATGCTTACGCATGTTGTATCACTGTATCAGTGTATCACCGGAGTCACCTAGTGCAG	3520 fluorescence intensity (a.u.)
TGCCGGGGTTACCACGCCCCGGCGGTAAGCACGGTTACCGCGGAGTCACCTAGTGCAG	3180 fluorescence intensity (a.u.)
ATTAGCAGTTTGCTAATGACAGAGTAGTGACGTTGTTTTCCGGAGTCACCTAGTGCAG	3610 fluorescence intensity (a.u.)
GATTGGGGAGCGGAGGAAGAGGAGGGGAAGTGGAGAGAGTCGGAGTCACCTAGTGCAG	3540 fluorescence intensity (a.u.)
TTTTGCCACCTGTTTCAGTGTTAGTGCTGTATGATGCTACCGGAGTCACCTAGTGCAG	4200 fluorescence intensity (a.u.)
TTCTATAAAATTGGTCAAACTTTAATACGAAACGGATGGACGGAGTCACCTAGTGCAG	3660 fluorescence intensity (a.u.)
ACCCCTCCCGCCGCCGTGGGTTTCCGCCTCGTTCTCGAGCCGGAGTCACCTAGTGCAG	3360 fluorescence intensity (a.u.)
CTGCGCGCACCGCGCGGTTGCCACGCACCGCCCGACGCACCGGAGTCACCTAGTGCAG	4990 fluorescence intensity (a.u.)
TTGTATTTGTTAATGGAATGCTGATTGGTGCACAGCAAACCGGAGTCACCTAGTGCAG	3170 fluorescence intensity (a.u.)
ATTGAATATAATTGGATATAAACAGTTTAAAACTATACTCCGGAGTCACCTAGTGCAG	5510 fluorescence intensity (a.u.)
CCCACTATTAGCTCCAATTCATCTCTGGCCAATCTAATAGCGGAGTCACCTAGTGCAG	3370 fluorescence intensity (a.u.)
GTCGGGCTCGGGACTCCTGCCGTGCCGCTGTCTGACAAGTCGGAGTCACCTAGTGCAG	3200 fluorescence intensity (a.u.)
GCGTCGAATGGAAAGATTTGAATATACACGCTGGCAACGTCGGAGTCACCTAGTGCAG	4160 fluorescence intensity (a.u.)
TCCCGTCTCGTCCGTCGTCTCCTCCGCTCCTTGCGCCAAGCGGAGTCACCTAGTGCAG	3200 fluorescence intensity (a.u.)
AATAGCTGTAGAACCTTTTGAGCTTTTCTTTTATTTATCTCGGAGTCACCTAGTGCAG	12800 fluorescence intensity (a.u.)

Two entries picked at random from those above, as already listed:
Sequence	binding signal
GATTGGGGAGCGGAGGAAGAGGAGGGGAAGTGGAGAGAGTCGGAGTCACCTAGTGCAG	3540 fluorescence intensity (a.u.)
CTGCGCGCACCGCGCGGTTGCCACGCACCGCCCGACGCACCGGAGTCACCTAGTGCAG	4990 fluorescence intensity (a.u.)

The list continues:

Sequence	binding signal
ATTTTAGGCTAAACAACTGAATGACTGACGATTCGATCCACGGAGTCACCTAGTGCAG	3340 fluorescence intensity (a.u.)
GCAGGCTGCTATAAGTAGCGCTGCTGCTGACGAGCTGATCCGGAGTCACCTAGTGCAG	3470 fluorescence intensity (a.u.)
AAAATCTCCATCCCAGCCACCTCACAACAAGATCCTCAACCGGAGTCACCTAGTGCAG	3410 fluorescence intensity (a.u.)
CGAGACCACAAAACCTGTGGTTACATGTCACACGTCATAACGGAGTCACCTAGTGCAG	10900 fluorescence intensity (a.u.)
TCTCTCTCTCTCTCTCTCTCTCTCTTTGAAATTCATGATTCGGAGTCACCTAGTGCAG	18100 fluorescence intensity (a.u.)
CAAATCGTCGGCCGAATCTCCCGCTGGCGCCGACGTGGACCGGAGTCACCTAGTGCAG	12600 fluorescence intensity (a.u.)
ATTTATTTTCCCCTAACCTGCGCGGAGAAAATTGTCGTGTCGGAGTCACCTAGTGCAG	3160 fluorescence intensity (a.u.)
AGCGCCGCTCCCCGCCACAAGTCCGCGCCTCCTCGACGACCGGAGTCACCTAGTGCAG	3500 fluorescence intensity (a.u.)
GCCGAACTATGTATGGTTGGGCCGGGGATGGGCCGACGCCCGGAGTCACCTAGTGCAG	3990 fluorescence intensity (a.u.)
GCGAATTCCGGCGAGGTATTCGCCGCGTTGCCATGGGGAACGGAGTCACCTAGTGCAG	3190 fluorescence intensity (a.u.)
GGCCGCGACGTACAGCTGTGACGCGGGATACGCCAAGAAGCGGAGTCACCTAGTGCAG	3320 fluorescence intensity (a.u.)
AATTCTACTGCCACATAAGCGCCACGTCAAAACGCCACGTCGGAGTCACCTAGTGCAG	18100 fluorescence intensity (a.u.)
CCACCACAAGCGAGGCCCAACTCAGAGTGACACGAGTTCGCGGAGTCACCTAGTGCAG	3290 fluorescence intensity (a.u.)
ACTCTCTCCCCGTCGTCGTCATCGTCATCGTCGTTCGTCGCGGAGTCACCTAGTGCAG	6810 fluorescence intensity (a.u.)
ACTCAGTTTCGTGCATGGATCTTACGAAGGTCAGGGGAGGCGGAGTCACCTAGTGCAG	3730 fluorescence intensity (a.u.)
CGGCTCGACCCGATGCTGTGGATTTCCGTTGCTACTATACCGGAGTCACCTAGTGCAG	3460 fluorescence intensity (a.u.)
ATGAACTATCAGGTCGATCGAATTATCCTCTAAACTCGAACGGAGTCACCTAGTGCAG	14100 fluorescence intensity (a.u.)
ATATAAATAGGTTTCGAGGTAGAATATCAAAACAAGGATGCGGAGTCACCTAGTGCAG	39300 fluorescence intensity (a.u.)
CTAATTCTAAAACTCAACATGCAAACATGCCACCTCATCACGGAGTCACCTAGTGCAG	8980 fluorescence intensity (a.u.)
AACGCAACGACAATGCGCTATATTCTGCGCTGACAGGTGGCGGAGTCACCTAGTGCAG	4260 fluorescence intensity (a.u.)
GCGAATCCACACGACAACGTGGAGCATTGTGAACGGCCTTCGGAGTCACCTAGTGCAG	4760 fluorescence intensity (a.u.)
